These are yes or no findings as the source states them, for the method shown. In cells and extracts the contact can be indirect. Some binding calls cover weakened binding; strength is not graded here.
Key:
[1] = molecular target: DNA-dependent protein kinase catalytic subunit (DNA-PKcs) (UniProt P78527); assay: pull-down from H1299 and A549 cell lysates with endostatin-coupled Sepharose 4B, immunoblot
[2] = molecular target: DNA-dependent protein kinase catalytic subunit (DNA-PKcs) (UniProt P78527); assay: co-immunoprecipitation with anti-DNA-PKcs antibody from H1299 and A549 cells after endostatin uptake, immunoblot
[3] = molecular target: DNA-dependent protein kinase catalytic subunit (DNA-PKcs) (UniProt P78527); assay: co-immunoprecipitation

Chains of the proteins cited; added tags and fusions are not shown. Lines headed by an entry give the natural chain unless they say otherwise; changes in a name come on top.
UniProt P78527: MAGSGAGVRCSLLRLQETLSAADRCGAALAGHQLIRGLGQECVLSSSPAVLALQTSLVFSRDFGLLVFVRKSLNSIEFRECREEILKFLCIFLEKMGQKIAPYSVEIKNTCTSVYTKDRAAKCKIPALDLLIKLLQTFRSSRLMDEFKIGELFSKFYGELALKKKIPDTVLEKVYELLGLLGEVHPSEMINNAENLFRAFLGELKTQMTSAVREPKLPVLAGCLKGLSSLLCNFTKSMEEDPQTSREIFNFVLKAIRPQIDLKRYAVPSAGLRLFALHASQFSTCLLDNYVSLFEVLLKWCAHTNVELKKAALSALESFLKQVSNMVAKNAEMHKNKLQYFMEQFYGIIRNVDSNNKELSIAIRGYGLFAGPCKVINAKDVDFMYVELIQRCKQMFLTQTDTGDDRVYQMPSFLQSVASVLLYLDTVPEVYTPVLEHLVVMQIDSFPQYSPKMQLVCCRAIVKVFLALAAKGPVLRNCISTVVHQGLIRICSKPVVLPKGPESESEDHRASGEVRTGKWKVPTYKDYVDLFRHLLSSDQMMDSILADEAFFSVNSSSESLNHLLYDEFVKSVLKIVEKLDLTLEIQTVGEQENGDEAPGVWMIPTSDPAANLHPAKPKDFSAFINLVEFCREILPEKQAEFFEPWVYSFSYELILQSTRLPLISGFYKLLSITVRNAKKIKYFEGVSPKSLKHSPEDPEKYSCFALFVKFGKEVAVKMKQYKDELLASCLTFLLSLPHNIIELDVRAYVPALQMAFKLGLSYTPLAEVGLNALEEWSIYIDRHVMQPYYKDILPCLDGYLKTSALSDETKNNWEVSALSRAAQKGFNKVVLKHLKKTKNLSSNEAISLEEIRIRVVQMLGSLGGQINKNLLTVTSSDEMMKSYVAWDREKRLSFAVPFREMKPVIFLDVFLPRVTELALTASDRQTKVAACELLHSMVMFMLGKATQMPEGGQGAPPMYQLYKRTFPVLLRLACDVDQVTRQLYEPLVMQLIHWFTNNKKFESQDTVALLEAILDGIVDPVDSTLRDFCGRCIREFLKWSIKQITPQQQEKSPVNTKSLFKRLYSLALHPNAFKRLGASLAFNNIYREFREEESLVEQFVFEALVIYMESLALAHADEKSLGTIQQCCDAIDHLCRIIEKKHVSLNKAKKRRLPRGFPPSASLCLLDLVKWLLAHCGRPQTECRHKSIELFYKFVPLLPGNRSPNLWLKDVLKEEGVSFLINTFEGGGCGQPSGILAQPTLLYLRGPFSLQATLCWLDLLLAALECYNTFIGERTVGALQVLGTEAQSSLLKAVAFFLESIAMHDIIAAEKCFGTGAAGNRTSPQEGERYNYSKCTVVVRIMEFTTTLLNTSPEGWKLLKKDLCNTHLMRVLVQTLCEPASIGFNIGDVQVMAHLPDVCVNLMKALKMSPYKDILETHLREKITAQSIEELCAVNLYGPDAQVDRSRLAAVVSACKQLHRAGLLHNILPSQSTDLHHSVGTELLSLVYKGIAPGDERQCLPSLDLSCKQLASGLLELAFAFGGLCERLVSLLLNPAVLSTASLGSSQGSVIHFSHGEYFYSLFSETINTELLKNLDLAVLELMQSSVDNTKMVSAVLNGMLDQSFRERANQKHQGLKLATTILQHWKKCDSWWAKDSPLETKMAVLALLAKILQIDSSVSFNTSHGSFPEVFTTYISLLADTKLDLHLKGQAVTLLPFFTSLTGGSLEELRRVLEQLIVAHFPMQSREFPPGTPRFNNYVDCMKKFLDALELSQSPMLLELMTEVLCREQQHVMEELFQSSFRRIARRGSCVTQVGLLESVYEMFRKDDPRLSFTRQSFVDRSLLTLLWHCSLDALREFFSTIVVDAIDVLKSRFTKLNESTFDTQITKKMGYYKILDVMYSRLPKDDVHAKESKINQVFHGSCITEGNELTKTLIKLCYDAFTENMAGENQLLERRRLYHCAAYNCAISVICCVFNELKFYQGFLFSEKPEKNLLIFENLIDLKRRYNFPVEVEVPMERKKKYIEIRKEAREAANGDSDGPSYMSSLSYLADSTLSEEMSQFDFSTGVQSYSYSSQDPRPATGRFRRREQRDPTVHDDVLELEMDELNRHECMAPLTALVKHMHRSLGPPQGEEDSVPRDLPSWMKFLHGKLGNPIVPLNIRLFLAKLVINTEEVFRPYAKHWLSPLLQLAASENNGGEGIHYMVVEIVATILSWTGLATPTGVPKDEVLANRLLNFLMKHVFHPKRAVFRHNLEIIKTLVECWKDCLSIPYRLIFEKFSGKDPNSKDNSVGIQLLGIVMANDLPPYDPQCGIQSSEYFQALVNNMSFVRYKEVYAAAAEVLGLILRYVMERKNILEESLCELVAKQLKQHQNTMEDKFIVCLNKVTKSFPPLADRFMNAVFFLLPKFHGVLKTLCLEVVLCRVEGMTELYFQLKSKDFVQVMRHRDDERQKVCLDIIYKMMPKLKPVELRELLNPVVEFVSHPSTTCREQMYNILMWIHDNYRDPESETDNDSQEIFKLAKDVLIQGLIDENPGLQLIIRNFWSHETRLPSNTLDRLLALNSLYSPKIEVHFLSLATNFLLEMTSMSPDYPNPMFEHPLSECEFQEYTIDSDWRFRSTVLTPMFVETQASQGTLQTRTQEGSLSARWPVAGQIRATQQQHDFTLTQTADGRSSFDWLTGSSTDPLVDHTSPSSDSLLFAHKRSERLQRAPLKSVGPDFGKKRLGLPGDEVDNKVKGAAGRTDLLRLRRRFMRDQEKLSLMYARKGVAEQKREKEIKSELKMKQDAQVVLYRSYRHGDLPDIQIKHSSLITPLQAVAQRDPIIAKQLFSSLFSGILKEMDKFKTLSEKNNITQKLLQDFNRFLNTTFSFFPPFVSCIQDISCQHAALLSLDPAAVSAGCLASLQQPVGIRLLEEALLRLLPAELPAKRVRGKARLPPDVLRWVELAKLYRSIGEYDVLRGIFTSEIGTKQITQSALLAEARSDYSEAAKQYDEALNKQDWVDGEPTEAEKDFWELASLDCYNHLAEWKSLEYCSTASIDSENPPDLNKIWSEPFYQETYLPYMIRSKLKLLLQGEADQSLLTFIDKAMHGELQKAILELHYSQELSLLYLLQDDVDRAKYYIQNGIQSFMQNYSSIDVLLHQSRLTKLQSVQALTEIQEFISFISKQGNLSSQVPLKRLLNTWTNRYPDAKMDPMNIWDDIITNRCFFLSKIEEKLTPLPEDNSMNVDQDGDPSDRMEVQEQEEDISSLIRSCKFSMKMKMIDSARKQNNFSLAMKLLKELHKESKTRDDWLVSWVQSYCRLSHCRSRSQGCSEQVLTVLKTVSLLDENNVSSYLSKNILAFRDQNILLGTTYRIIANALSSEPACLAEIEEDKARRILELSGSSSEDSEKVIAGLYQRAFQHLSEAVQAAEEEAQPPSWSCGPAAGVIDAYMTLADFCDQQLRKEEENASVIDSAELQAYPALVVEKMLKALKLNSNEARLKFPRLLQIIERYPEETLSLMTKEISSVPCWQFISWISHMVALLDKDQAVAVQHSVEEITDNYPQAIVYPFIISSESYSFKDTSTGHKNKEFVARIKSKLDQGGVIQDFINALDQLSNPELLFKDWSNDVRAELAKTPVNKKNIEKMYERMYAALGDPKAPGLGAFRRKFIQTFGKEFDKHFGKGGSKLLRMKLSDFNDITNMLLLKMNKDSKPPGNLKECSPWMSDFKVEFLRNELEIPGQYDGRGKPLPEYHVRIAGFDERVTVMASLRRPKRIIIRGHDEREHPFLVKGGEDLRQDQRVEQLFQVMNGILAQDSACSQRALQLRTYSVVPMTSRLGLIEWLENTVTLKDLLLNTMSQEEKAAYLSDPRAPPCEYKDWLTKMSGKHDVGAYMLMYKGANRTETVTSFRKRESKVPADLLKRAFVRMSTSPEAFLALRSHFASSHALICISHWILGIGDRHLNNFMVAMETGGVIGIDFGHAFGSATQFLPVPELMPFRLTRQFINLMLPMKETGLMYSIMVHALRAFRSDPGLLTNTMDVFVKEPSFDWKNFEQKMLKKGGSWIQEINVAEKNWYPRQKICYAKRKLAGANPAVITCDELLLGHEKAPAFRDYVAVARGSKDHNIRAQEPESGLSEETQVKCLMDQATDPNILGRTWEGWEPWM
UniProt P39060: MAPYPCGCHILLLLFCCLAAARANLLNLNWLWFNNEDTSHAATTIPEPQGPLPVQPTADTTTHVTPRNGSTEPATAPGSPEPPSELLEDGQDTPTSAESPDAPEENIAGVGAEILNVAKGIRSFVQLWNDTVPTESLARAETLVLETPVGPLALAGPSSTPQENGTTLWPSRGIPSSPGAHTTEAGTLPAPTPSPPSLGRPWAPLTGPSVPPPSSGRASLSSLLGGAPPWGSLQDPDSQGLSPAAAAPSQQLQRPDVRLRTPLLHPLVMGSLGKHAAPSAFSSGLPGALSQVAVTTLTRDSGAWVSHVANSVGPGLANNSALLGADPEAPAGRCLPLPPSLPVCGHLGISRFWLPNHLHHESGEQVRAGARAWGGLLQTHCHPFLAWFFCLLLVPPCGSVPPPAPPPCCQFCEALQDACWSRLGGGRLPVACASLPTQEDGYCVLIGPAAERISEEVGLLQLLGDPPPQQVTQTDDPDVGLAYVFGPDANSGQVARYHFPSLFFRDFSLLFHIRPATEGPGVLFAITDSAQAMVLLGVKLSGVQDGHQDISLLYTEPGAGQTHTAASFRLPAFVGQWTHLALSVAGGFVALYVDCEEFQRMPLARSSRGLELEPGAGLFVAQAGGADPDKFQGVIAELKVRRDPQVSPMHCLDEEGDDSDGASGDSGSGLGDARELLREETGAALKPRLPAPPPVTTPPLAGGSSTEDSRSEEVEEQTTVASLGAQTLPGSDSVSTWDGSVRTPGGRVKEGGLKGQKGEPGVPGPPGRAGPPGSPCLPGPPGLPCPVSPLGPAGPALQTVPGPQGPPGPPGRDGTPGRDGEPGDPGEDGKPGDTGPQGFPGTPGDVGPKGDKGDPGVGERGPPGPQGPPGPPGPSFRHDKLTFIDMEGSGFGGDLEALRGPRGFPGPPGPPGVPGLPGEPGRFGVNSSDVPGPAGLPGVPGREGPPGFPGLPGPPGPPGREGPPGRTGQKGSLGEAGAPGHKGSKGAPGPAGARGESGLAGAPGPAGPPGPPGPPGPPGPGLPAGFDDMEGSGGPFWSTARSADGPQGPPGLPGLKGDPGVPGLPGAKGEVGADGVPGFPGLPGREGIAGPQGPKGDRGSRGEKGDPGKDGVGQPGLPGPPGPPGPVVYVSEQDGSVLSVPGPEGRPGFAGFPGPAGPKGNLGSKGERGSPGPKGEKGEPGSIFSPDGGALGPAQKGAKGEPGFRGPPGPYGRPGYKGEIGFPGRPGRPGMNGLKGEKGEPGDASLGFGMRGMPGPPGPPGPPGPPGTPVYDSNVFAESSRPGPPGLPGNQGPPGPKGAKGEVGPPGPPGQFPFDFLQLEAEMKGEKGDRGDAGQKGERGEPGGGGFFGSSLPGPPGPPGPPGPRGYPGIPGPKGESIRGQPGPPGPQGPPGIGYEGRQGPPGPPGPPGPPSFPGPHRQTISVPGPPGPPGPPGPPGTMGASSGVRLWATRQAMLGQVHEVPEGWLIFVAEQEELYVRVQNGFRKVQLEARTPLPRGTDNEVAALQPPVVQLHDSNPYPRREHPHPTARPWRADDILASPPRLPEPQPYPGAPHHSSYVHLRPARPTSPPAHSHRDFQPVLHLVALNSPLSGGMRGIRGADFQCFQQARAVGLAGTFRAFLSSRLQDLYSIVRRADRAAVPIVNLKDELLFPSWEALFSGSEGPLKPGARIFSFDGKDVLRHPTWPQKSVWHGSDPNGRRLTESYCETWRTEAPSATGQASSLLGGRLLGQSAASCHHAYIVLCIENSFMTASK

binding [1]: binds
binding [2]: binds
binding [3]: binds
Substance: recombinant natural human endostatin expressed by E. coli (from UniProt P39060 1572-1754)

— patent US20240165140A1, “MEDICATION FOR INHIBITING DNA-PKCS” (TSINGHUA UNIVERSITY, priority 2017, published 2024)
